The list does not hold the whole screen: it gathers tests that were run many times, whatever their T/C, doses with no T/C, and many T/C values between a quarter and a half above the control. Further doses and runs are listed elsewhere. T/C is the treated group as % of the vehicle group. Some entries give survivors of the animals treated and no T/C: the source holds a T/C of zero for them, seemingly a mark for toxic or unscored doses. Some survivor counts are full or nearly so, which does not show that the dose was tolerated: the source hardly ever lists a survival T/C far under the control, and the zero likely stands for such cases as well. Survivors were counted at the toxicity check, usually on the fifth day, unless a day is given; later deaths do not show. Schedules are NCI's codes, taken here to give the interval after Q, in days (D) or hours (H), and the number of doses after X. Some entries were tested several times; the results are listed from low to high. For survival time, the PubChem record calls one and a half times the control and up active, and a quarter to a half above the control has no call in these data; cut-offs in other NCI protocols can differ. Some T/C values carry the count of animals alive at the toxicity check (mostly the fifth day); where none is given, no animal had died by that day.
Tested on: AKR/Lw mice, AKR lymphoma ip, median survival T/C
Experiment: NCI In Vivo Anticancer Drug Screen. Data for tumor model Lymphoma AKR (Transplanted) (intraperitoneal) in AKR/Lw mice
Details: T/C endpoint: median survival time, higher T/C = longer survival
Protocol: The antitumor activity of compounds was measured in mice bearing transplantable tumors. Survival or tumor size were measured and the results are expressed as the measurement made in the treated group (T) divided by the measurement made in the vehicle treated control group (C). The tumor model used in this assay is Lymphoma AKR (Transplanted) (intraperitoneal) in AKR/Lw mice

[1] = dose: 0.12 mg/kg/injection, schedule: Q04DX003 (ip), vehicle: saline
[2] = dose: 0.25 mg/kg/injection, schedule: Q01DX001 (ip), vehicle: saline
[3] = dose: 0.25 mg/kg/injection, schedule: Q04DX003 (ip), vehicle: saline
[4] = dose: 0.5 mg/kg/injection, schedule: Q01DX001 (ip), vehicle: saline
[5] = dose: 0.5 mg/kg/injection, schedule: Q04DX003 (ip), vehicle: saline
[6] = dose: 1.0 mg/kg/injection, schedule: Q01DX001 (ip), vehicle: saline
[7] = dose: 5.0 micrograms/kg/injection, schedule: Q01DX009 (ip), vehicle: saline
[8] = dose: 10.0 micrograms/kg/injection, schedule: Q01DX009 (ip), vehicle: saline
[9] = dose: 100.0 mg/kg/injection, schedule: Q04DX003 (ip), vehicle: other
[10] = dose: 200.0 mg/kg/injection, schedule: Q04DX003 (ip), vehicle: other

Structure (SMILES): CC[C@]1(O)C[C@H]2CN(CCc3c([nH]c4ccccc34)[C@@](C(=O)OC)(c3cc4c(cc3OC)N(C=O)[C@H]3[C@@](O)(C(=O)OC)[C@H](OC(C)=O)[C@]5(CC)C=CCN6CC[C@]43[C@@H]65)C2)C1
- survivor count (dose: 0.05 mg/kg/injection, schedule: Q01DX009 (ip), vehicle: saline): 10 of 10
- T/C (dose: 0.05 mg/kg/injection, schedule: Q10DX002 (ip), vehicle: saline, evaluated on day 5): 125 % of control
- T/C (dose: 0.05 mg/kg/injection, schedule: Q10DX002 (ip), vehicle: saline, evaluated on day 60): 125 % of control [9 of 10 alive]
- survivor count (dose: 0.06 mg/kg/injection, schedule: Q04DX003 (ip), vehicle: saline): 7 of 10
- survivor count (dose: 0.1 mg/kg/injection, schedule: Q01DX009 (ip), vehicle: saline): 9 of 10
- T/C (dose: 0.1 mg/kg/injection, schedule: Q10DX002 (ip), vehicle: saline, evaluated on day 5): 131 % of control
- T/C (dose: 0.1 mg/kg/injection, schedule: Q10DX002 (ip), vehicle: saline, evaluated on day 60): 131 % of control [8 of 10 alive]
- survivor count (dose: 0.12 mg/kg/injection, schedule: Q01DX009 (ip), vehicle: saline): 7 of 10
- T/C (dose: 0.12 mg/kg/injection, schedule: Q04DX002 (ip), vehicle: saline, evaluated on day 5): 126 % of control
- T/C (dose: 0.12 mg/kg/injection, schedule: Q04DX002 (ip), vehicle: saline, evaluated on day 60): 126 % of control
- T/C [1]: 100, 111, 117 [9 of 10 alive], 118, 131, 134 [9 of 10 alive], 151, 196 % of control
- survivor count [1]: 10 of 10
- survivor count (dose: 0.2 mg/kg/injection, schedule: Q01DX009 (ip), vehicle: saline): 10 of 10
- T/C [2]: 106 [9 of 10 alive], 115, 119, 120 % of control
- survivor count [2]: 6 of 10
- survivor count (dose: 0.25 mg/kg/injection, schedule: Q01DX009 (ip), vehicle: saline): 3 of 10
- T/C (dose: 0.25 mg/kg/injection, schedule: Q04DX002 (ip), vehicle: saline, evaluated on day 5): 125 % of control
- T/C (dose: 0.25 mg/kg/injection, schedule: Q04DX002 (ip), vehicle: saline, evaluated on day 60): 125 % of control [9 of 10 alive]
- T/C (dose: 0.25 mg/kg/injection, schedule: Q04DX002 (ip), vehicle: water, evaluated on day 4): 131 % of control
- T/C (dose: 0.25 mg/kg/injection, schedule: Q04DX002 (ip), vehicle: water, evaluated on day 60): 125 % of control
- T/C [3]: 87 [8 of 10 alive], 94, 105, 107, 127, 128, 130 [8 of 10 alive], 186, 206 % of control
- survivor count [3]: 8 of 10
- T/C (dose: 0.25 mg/kg/injection, schedule: Q10DX002 (ip), vehicle: saline, evaluated on day 5): 141 % of control
- T/C (dose: 0.25 mg/kg/injection, schedule: Q10DX002 (ip), vehicle: saline, evaluated on day 60): 141 % of control
- T/C [4]: 108 [9 of 10 alive], 111, 118, 123, 125, 130, 132, 132 % of control [9 of 10 alive]
- survivor count [4]: 4 of 10
- survivor count (dose: 0.5 mg/kg/injection, schedule: Q01DX009 (ip), vehicle: saline): 0 of 10 and 10 of 10
- T/C [5]: 90, 92, 100 [9 of 10 alive], 113, 141, 253 % of control
- survivor count [5]: 8 of 10 and 10 of 10
- T/C (dose: 0.5 mg/kg/injection, schedule: Q10DX002 (ip), vehicle: saline, evaluated on day 5): 131 % of control
- T/C (dose: 0.5 mg/kg/injection, schedule: Q10DX002 (ip), vehicle: saline, evaluated on day 60): 131 % of control
- survivor count (dose: 0.75 mg/kg/injection, schedule: Q04DX003 (ip), vehicle: saline): 9 of 10 and 10 of 10
- T/C [6]: 123 [8 of 10 alive], 139, 141, 143, 161 % of control
- survivor count [6]: 8 of 10
- survivor count (dose: 1.0 mg/kg/injection, schedule: Q04DX003 (ip), vehicle: saline): 3 of 10
- survivor count (dose: 1.0 mg/kg/injection, schedule: Q10DX002 (ip), vehicle: saline): 6 of 10
- T/C (dose: 1.5 mg/kg/injection, schedule: Q01DX001 (ip), vehicle: saline): 141 [9 of 10 alive] and 146 % of control
- survivor count (dose: 1.5 mg/kg/injection, schedule: Q04DX003 (ip), vehicle: saline): 9 of 10
- survivor count (dose: 1.5 mg/kg/injection, schedule: Q10DX002 (ip), vehicle: saline): 9 of 10
- survivor count (dose: 2.0 mg/kg/injection, schedule: Q01DX001 (ip), vehicle: saline): 3 of 10, 4 of 10, 5 of 10
- survivor count (dose: 2.0 mg/kg/injection, schedule: Q04DX003 (ip), vehicle: saline): 4 of 10 and 10 of 10
- survivor count (dose: 3.0 mg/kg/injection, schedule: Q04DX003 (ip), vehicle: saline): 5 of 10
- survivor count (dose: 4.0 mg/kg/injection, schedule: Q04DX003 (ip), vehicle: saline): 10 of 10
- survivor count (dose: 0.6 micrograms/kg/injection, schedule: Q01DX009 (ip), vehicle: saline): 10 of 10
- survivor count (dose: 1.2 micrograms/kg/injection, schedule: Q01DX009 (ip), vehicle: saline): 9 of 10
- survivor count (dose: 1.5 micrograms/kg/injection, schedule: Q01DX009 (ip), vehicle: saline): 10 of 10
- survivor count (dose: 2.5 micrograms/kg/injection, schedule: Q01DX009 (ip), vehicle: saline): 5 of 10 and 6 of 10
- survivor count (dose: 3.0 micrograms/kg/injection, schedule: Q01DX009 (ip), vehicle: saline): 8 of 10 and 10 of 10
- T/C [7]: 93 [8 of 10 alive], 114, 121, 135 % of control
- survivor count [7]: 1 of 10
- survivor count (dose: 6.0 micrograms/kg/injection, schedule: Q01DX009 (ip), vehicle: saline): 10 of 10
- T/C [8]: 88 [9 of 10 alive], 90 [8 of 10 alive], 94 [9 of 10 alive], 106 % of control
- survivor count [8]: 0 of 10
- survivor count (dose: 12.0 micrograms/kg/injection, schedule: Q01DX009 (ip), vehicle: saline): 10 of 10
- survivor count (dose: 20.0 micrograms/kg/injection, schedule: Q01DX009 (ip), vehicle: saline): 10 of 10
- survivor count (dose: 25.0 micrograms/kg/injection, schedule: Q01DX009 (ip), vehicle: saline): 10 of 10
- survivor count (dose: 50.0 micrograms/kg/injection, schedule: Q01DX009 (ip), vehicle: saline): 9 of 10

Structure (SMILES): S=c1[nH]nc(NC2CCCCC2)s1
- survivor count (dose: 400.0 mg/kg/injection, schedule: Q04DX003 (ip), vehicle: Klucel (hydroxypropylcellulose) (HPC)): 9 of 10

Structure (SMILES): ClC1=C(Cl)C2(Cl)C(COc3ccc(Cl)cc3)CC1(Cl)C2(Cl)Cl (centres undefined)
- survivor count [9]: 10 of 10
- survivor count [10]: 10 of 10
- survivor count (dose: 400.0 mg/kg/injection, schedule: Q04DX003 (ip), vehicle: other): 10 of 10

Structure (SMILES): CN(C)CCCNC(=O)Nc1ccccc1
- survivor count (dose: 400.0 mg/kg/injection, schedule: Q01DX001 (ip), vehicle: Klucel (hydroxypropylcellulose) (HPC)): 0 of 10

Structure (SMILES): COc1ccc(C2c3cc4c(c(OC)c3CC3OCC(=O)C32)OCO4)cc1OC (centres undefined)
- survivor count (dose: 12.5 mg/kg/injection, schedule: Q01DX009 (ip), vehicle: Klucel (hydroxypropylcellulose) (HPC)): 9 of 10
- survivor count (dose: 100.0 mg/kg/injection, schedule: Q01DX009 (ip), vehicle: Klucel (hydroxypropylcellulose) (HPC)): 10 of 10
- survivor count (dose: 200.0 mg/kg/injection, schedule: Q01DX009 (ip), vehicle: Klucel (hydroxypropylcellulose) (HPC)): 5 of 10

Structure (SMILES): CCCCCCCCCCCCCCCC(=O)N(CCC#N)CCCCCCCCCN(CCC#N)C(=O)CCCCCCCCCCCCCCC
- survivor count (dose: 50.0 mg/kg/injection, schedule: Q04DX003 (ip), vehicle: other): 10 of 10
- survivor count [9]: 10 of 10
- survivor count [10]: 10 of 10
- survivor count (dose: 400.0 mg/kg/injection, schedule: Q01DX001 (ip), vehicle: saline): 9 of 10
